Test results: PubChem BioAssay AID2685 (National Center for Advancing Translational Sciences (NCATS), 2010)
Some of the results follow. These are further read-outs of the screen, such as a control signal, another cell line or another target. No call is given for them. Most of these compounds were active or inconclusive in the main read-out, so they are no random draw. The note in brackets gives the kind of curve behind each potency; many fits are weak.

Experiment: qHTS Assay for Lipid Storage Modulators in Drosophila S3 Cells;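 as to cell number change: cells counted by Cell Tracker Red CMTPX staining in the red channel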
Conditions: BODIPY lipid droplet fluorescence, 18-24 h; for cell number change: measured here: cell count max response, cells fed with added oleic acid
In short: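 Drosophila S3 cells loaded with oleic acid (400 uM, as added) and compounds at several concentrations; lipid droplets imaged by 488-nm laser-scanning cytometry, 500–530 nm intensity and object ratio to cell channel. Percent activity normalized to 20 uM Triacsin C.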

[1] = measured here: cell number channel AC50, cells fed with added oleic acid
[2] = measured here: lipid fluorescence (Fed channel) AC50, cells fed with added oleic acid

SMILES	cell number change [%]	AC50 [1]	AC50 [2]
Cc1cccc(-n2nc(C(=O)Nc3ccccc3)n3c(=O)cc(-c4ccccc4)nc23)c1	31.5	29.1 µM [rising, single point]	0.0326 µM [rising, full curve, poor fit]
CC(C)(C)NC(=O)COC(=O)c1ccc(NC(=O)CC#N)cc1	46.6	29.1 µM [rising, single point]	–
CC(=O)c1ccc(NC(=S)NCCc2cccc(Cl)c2)cc1	-21.7	–	29.1 µM [falling, single point]
COc1ccccc1CNC(=O)c1cc(-c2ccccc2C)n(CC2CC(c3cccc([N+](=O)[O-])c3)=NO2)n1 (stereo not given)	-27.4	–	–
CC(C)C(=O)N(Cc1ccc2c(c1)OCO2)Cc1ccccn1	-0.953	–	–
CN(C)CCCN(C(=O)c1ccc(S(=O)(=O)N2CCc3ccccc32)cc1)c1nc2ccc(Cl)cc2s1	56.9	–	16.4 µM [rising, partial curve]
CC(=O)N1CCC(C(=O)NC2CC(C)(C)Cc3c2cnn3-c2ccc(F)cc2)CC1 (stereo not given)	-3.57	–	0.00517 µM [falling, full curve, poor fit]
CCOc1cccc2sc(N(CCN(CC)CC)C(=O)c3cccc(N4C(=O)CCC4=O)c3)nc12	-17.9	–	25.9 µM [falling, partial curve, poor fit]
Cc1ccc(-n2c(SCc3nnc4n3CCC4)nnc2-c2ccccc2)cc1	30.9	10.3 µM [rising, single point]	–
Cc1c(C(=O)O)c(C(=O)O)nc2ccc(N3CCOCC3)cc12	-29.9	–	29.1 µM [falling, single point]
COc1ccccc1C(CNC(=O)C1CC(=O)N(Cc2ccc(C)cc2)C1)N1CCCC1 (stereo not given)	–	–	18.4 µM [rising, single point]
COc1ccccc1N1C(=O)C2CCC(c3ccccc3)CC2C1=O (stereo not given)	31.2	16.4 µM [rising, single point]	18.4 µM [rising, partial curve]
Cc1cc(S(=O)(=O)N2CCCCC2CCNC(=O)C(=O)NCC2CCCO2)ccc1F (stereo not given)	2.19	7.31 µM [falling, single point]	6.51 µM [falling, partial curve, poor fit]
CCCC(c1nnnn1Cc1ccco1)N1CCN(C2CCCC2)CC1 (stereo not given)	-51.8	5.17 µM [falling, full curve]	16.4 µM [falling, partial curve]
CCc1nnc(SCC(=O)Nc2ccc(N3CCN(S(C)(=O)=O)CC3)cc2)o1	5.13	–	29.1 µM [rising, single point]
O=C(NCCc1cccc(F)c1)C1CCCN(c2nc3ccccc3s2)C1 (stereo not given)	-13.3	–	–
Cc1nnsc1-c1nnc(SCC(=O)c2ccc(F)cc2)n1C1CC1	11.1	–	0.411 µM [rising, full curve, poor fit]
CCCCn1c(N)c(N(Cc2ccccc2OC)C(=O)c2cc(CC)c(C)s2)c(=O)[nH]c1=O	11.8	–	0.082 µM [rising, full curve, poor fit]
CCCCN(CC)S(=O)(=O)c1ccc(C(=O)Nc2nnc(-c3cccs3)o2)cc1	94.5	23.1 µM [rising, single point]	0.092 µM [falling, full curve, poor fit]
COc1ccccc1CNC(=O)C1CCCC1	7.26	–	29.1 µM [rising, single point]

Random excerpt: 4 entries already listed, in no set order.
SMILES	cell number change [%]	AC50 [1]	AC50 [2]
CC(=O)N1CCC(C(=O)NC2CC(C)(C)Cc3c2cnn3-c2ccc(F)cc2)CC1 (stereo not given)	-3.57	–	0.00517 µM [falling, full curve, poor fit]
Cc1ccc(-n2c(SCc3nnc4n3CCC4)nnc2-c2ccccc2)cc1	30.9	10.3 µM [rising, single point]	–
CCCCN(CC)S(=O)(=O)c1ccc(C(=O)Nc2nnc(-c3cccs3)o2)cc1	94.5	23.1 µM [rising, single point]	0.092 µM [falling, full curve, poor fit]
COc1ccccc1CNC(=O)C1CCCC1	7.26	–	29.1 µM [rising, single point]

Continued.

SMILES	cell number change [%]	AC50 [1]	AC50 [2]
CC(=O)NS(=O)(=O)c1ccc(NC(=O)CC(C)c2ccccc2)cc1 (stereo not given)	9.76	–	0.00517 µM [falling, full curve, poor fit]
O=C(O)c1cc(/C=C/c2ccc(N3CCOCC3)cc2)nc2ccccc12	-52.9	29.1 µM [falling, partial curve, poor fit]	–
O=C(CN1C(=O)CSc2cc(S(=O)(=O)N3CCCCCC3)ccc21)NCCc1ccccc1	9.8	–	8.2 µM [rising, partial curve]
COc1cc2c(cc1OC)CN(C(=O)c1ccc(OC)c(S(=O)(=O)N3CCCC3)c1)CC2	–	0.461 µM [falling, partial curve, poor fit]	–
Cc1ccccc1C(CC(=O)c1cccs1)C(C#N)C#N (stereo not given)	-26.7	–	18.4 µM [falling, single point]
Cc1c(NC(=O)c2coc(=O)c(Br)c2)c(=O)n(-c2ccccc2)n1C	2.55	–	6.51 µM [rising, single point]
CCOC(=O)C1CCCN(C(=S)NC(=O)c2cc(Br)ccc2Cl)C1 (stereo not given)	–	–	0.366 µM [falling, full curve]
Cc1nc(-c2ccc(S(=O)(=O)Nc3cccc(Cl)c3)cc2)co1	70	29.1 µM [rising, single point]	0.00517 µM [rising, full curve, poor fit]
CCOC(=O)CC1COCCN1C(=O)c1cc(COc2ccc(F)cc2Cl)on1 (stereo not given)	-19.4	–	29.1 µM [falling, single point]
CC(C)(C)c1ccc(C(=O)N2CCC(=O)N(C(COCc3ccccc3)Cc3ccccc3)CC2)cc1 (stereo not given)	-48.9	16.4 µM [falling, single point]	11.6 µM [falling, partial curve, poor fit]
Cc1cccc(NC(=O)C(=O)N/N=C/c2ccncc2)c1	23.3	0.116 µM [rising, full curve, poor fit]	–
Cc1ccc(SCCC(=O)N/N=C/c2ccccc2O)cc1	-55.1	16.4 µM [falling, partial curve]	–
COCCNC(=O)/C(C#N)=C/C=C/c1ccccc1	15	–	–
O=C(NCc1ccccc1)C1CCCN(S(=O)(=O)c2ccc(F)cc2)C1 (stereo not given)	–	–	6.51 µM [rising, single point]
C=CCn1c(N)c(C(=O)Nc2ccccc2)c2nc3ccccc3nc21	–	–	6.51 µM [rising, single point]
COc1cccc(-c2c(C(=O)N/N=C/c3sccc3C)nnn2-c2nonc2N)c1	24.2	–	–
COc1ccc(CCNC(=O)COc2ccc(C)nc2[N+](=O)[O-])cc1	–	0.092 µM [rising, full curve, poor fit]	–
COc1ccc(/C=C2\CCCc3c2nc2ccccc2c3C(=O)OCC(=O)c2c(N)n(C)c(=O)n(C)c2=O)cc1	–	–	2.91 µM [rising, full curve]
CCn1nnc2c(=O)oc3ccccc3c21	-53.6	0.92 µM [falling, full curve]	0.58 µM [falling, full curve]
O=C(NCc1ccccn1)c1cc(-c2ccc(Cl)cc2)oc1C(F)(F)F	24.9	–	–

SMILES	cell number change [%]	AC50 [1]	AC50 [2]
Cc1cccc(C)c1NC(=O)CNC(=O)CNC(=O)Cc1cccc2ccccc12	19.7	–	5.17 µM [rising, full curve, poor fit]
CCCn1c2ccccc2c2nnc(SCCN3CCOCC3)nc21	-18	–	18.4 µM [falling, single point]
CO/N=C\CC(=O)Nc1ccc(Oc2ccccc2)cc1	14	–	–
O=C(NCC1CCCO1)C1CC(=O)N(c2ccccc2)C1 (stereo not given)	-15.1	–	0.58 µM [falling, single point]
O=C(Nc1nnc(S(=O)(=O)N2CCOCC2)s1)c1cccc(Br)c1	-8.26	–	11.6 µM [falling, partial curve, poor fit]
CCCCc1cc(=O)oc2cc(C)cc(OC(C)C(=O)NCc3ccccn3)c12 (stereo not given)	1.79	–	–
O=C(N/C(=C\c1ccc(-c2ccccc2)o1)C(=O)N1CCOCC1)c1ccccc1	–	–	0.116 µM [rising, full curve, poor fit]
CC1Sc2ccc(S(=O)(=O)CCC(=O)N3CCN(c4ccccc4)CC3)cc2NC1=O (stereo not given)	11.6	–	29.1 µM [rising, single point]
O=S(=O)(c1ccc(Br)cc1)N1CCC(c2nc3ccccc3[nH]2)CC1	19.2	–	0.116 µM [rising, full curve]
Cc1ccc(C2(C)NC(=O)N(CC(=O)Nc3ccccc3C(=O)N3CCCCC3)C2=O)cc1 (stereo not given)	–	2.31 µM [falling, partial curve]	20.6 µM [falling, partial curve]
O=C1CC(N(C(=O)c2ccco2)c2ccc(F)cc2)C(=O)N1c1ccc(F)cc1 (stereo not given)	-102	18.4 µM [falling, single point]	–
COc1cccc(NC(=O)C(Cc2ccccc2)NC(=O)C2CCC(C)CC2)c1 (stereo not given)	13.3	–	–
CCCSc1nsc(SCCC)c1C#N	-1.76	–	4.11 µM [rising, full curve, poor fit]
COc1ccc(OC)c(NC(=O)CN2C(=O)NC(C)(c3ccc4c(c3)OCCO4)C2=O)c1 (stereo not given)	-6.27	–	6.51 µM [falling, single point]
CCOC(=O)c1ccc(S(=O)(=O)NCC(C)(C)N2CCOCC2)cc1	28.2	–	25.9 µM [rising, single point]
CCOC(=O)Nc1nc(-c2ccc(Cl)cc2Cl)cs1	43.4	7.31 µM [rising, partial curve]	10.3 µM [rising, partial curve]
Cc1ccc(N(Cc2ccc(C(=O)NC3CCCCC3)cc2)S(C)(=O)=O)cc1C	–	1.84 µM [rising, partial curve, poor fit]	–
CC1CCN(CC(CS(=O)(=O)c2ccc([N+](=O)[O-])cc2)N2CCC(C)CC2)CC1 (stereo not given)	-18.6	–	0.164 µM [falling, full curve, poor fit]
COc1ccc(NC(=O)c2ccco2)cc1S(=O)(=O)N1CCCCC1	-35	14.6 µM [falling, single point]	8.2 µM [falling, partial curve]
